Assay results reported in publication PMC12311210.
No constants are given. Whether binding was seen depends on the method and setting. In cells and extracts the contact can be indirect. Some results given as binding are weak or reduced against the parent protein; the word gives no strength.

The chains behind the UniProt entries cited, without tags or fusion partners.
UniProt Q07666: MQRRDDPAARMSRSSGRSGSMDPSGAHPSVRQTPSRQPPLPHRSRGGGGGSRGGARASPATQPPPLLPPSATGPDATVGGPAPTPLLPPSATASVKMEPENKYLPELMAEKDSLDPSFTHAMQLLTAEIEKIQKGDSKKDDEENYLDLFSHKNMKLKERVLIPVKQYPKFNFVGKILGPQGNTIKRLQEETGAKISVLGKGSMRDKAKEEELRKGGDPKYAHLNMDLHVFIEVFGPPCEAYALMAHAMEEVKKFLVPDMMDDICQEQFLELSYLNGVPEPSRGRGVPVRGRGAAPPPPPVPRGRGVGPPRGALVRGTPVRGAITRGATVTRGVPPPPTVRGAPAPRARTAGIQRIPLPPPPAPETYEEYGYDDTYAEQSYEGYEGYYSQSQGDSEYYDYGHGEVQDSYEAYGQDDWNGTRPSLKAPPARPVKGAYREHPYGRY
UniProt P17844: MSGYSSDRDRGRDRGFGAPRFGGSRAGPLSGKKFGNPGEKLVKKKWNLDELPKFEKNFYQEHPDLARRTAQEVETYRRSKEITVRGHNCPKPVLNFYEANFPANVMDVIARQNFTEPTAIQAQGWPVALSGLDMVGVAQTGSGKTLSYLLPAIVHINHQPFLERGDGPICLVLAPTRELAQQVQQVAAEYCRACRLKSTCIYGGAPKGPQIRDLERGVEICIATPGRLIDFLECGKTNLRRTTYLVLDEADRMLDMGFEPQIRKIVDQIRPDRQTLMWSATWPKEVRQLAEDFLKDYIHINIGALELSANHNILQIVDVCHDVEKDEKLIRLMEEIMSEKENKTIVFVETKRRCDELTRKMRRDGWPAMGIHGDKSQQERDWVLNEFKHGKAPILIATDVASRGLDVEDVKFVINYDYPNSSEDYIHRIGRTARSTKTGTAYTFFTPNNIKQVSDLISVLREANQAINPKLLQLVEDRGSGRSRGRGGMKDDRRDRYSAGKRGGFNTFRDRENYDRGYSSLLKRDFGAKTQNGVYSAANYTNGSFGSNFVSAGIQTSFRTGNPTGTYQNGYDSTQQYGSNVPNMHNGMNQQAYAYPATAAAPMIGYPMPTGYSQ

Experiments:
[1] = biological target: KHDRBS1 (KH domain-containing RNA-binding protein 1) (human (endogenous in HeLa)) (UniProt Q07666); test: cross-linking; HeLa cells (1 x 10^6) incubated with 10 µg/mL F1, F3 or P3 in PBS at 37 °C for 45 min, homogenised, protein 2.5 mg/mL; cross-linked with 10-fold molar excess of dimethyl suberimidate (DMS) in 0.2 M triethanolamine pH 8.0, room temperature, 45 min; tryptic digest, LC-MS/MS, pLink2, 1% FDR on peptide level; only the binder purified
[2] = biological target: DDX5 (DEAD-box helicase 5) (human (endogenous in HeLa)) (UniProt P17844); test: as above

Binder	binding [1]	binding [2]
GLLSVLGSVAKHVLPHVVPVIAEHL (C-terminal amide (-NH2)) [Caerin 1.1]	binds	
GTELPSPPSVWFEAEFK [control peptide P3]	no binding (tested: 10 µg/mL)	no binding (tested: 10 µg/mL)
GLFGVLGSIAKHVLPHVVPVIAEKL (C-terminal amide (-NH2)) [Caerin 1.9]		binds
